For some of these results: Weaker means in comparison with the reference protein, sequence or condition of that experiment. For some of these results: For at least one entry, the source does not settle the construct or the ends of the probe. For some of these results: The direction of at least one scale is not stated here.
Legend:
[1] = molecular target: FEN1 (FEN1-1.His) (human) (UniProt P39748); experiment: EMSA; details: 1 and 5 nM protein; 25 mM Tris pH 8.0, 1 mM DTT, 0.1 mg/ml BSA, 6% glycerol; 0.2 nM 32P substrate; 1 h on ice; 10% native PAGE in tris-borate; recombinant protein; residues 1-380; protein details: His; label: 5'-32P on RNA44
FEN1 D181A (human) = FEN1 D181A (human) (UniProt P39748); experiment: EMSA; details: 1 and 5 nM protein; 25 mM Tris pH 8.0, 1 mM DTT, 0.1 mg/ml BSA, 6% glycerol; 0.2 nM 32P substrate; 1 h on ice; 10% native PAGE in tris-borate; recombinant protein; residues 1-380; protein details: His; label: 5'-32P on RNA44
FENMIT (human) [2] = experiment: competition with a labelled probe; details: 25 nM FENMIT, cold RNA44 0-5 nM; 25 mM Tris pH 8.0, 1 mM DTT, 0.1 mg/ml BSA, 6% glycerol; 0.2 nM 32P substrate; 1 h on ice; 10% native PAGE in tris-borate; recombinant protein; residues 1-316; protein details: His; label: 5'-32P on RNA44; scale: fold more cold RNA44 for half competition than labeled ssRNA needs
FENMIT (human) [3] = experiment: EMSA; details: 25 mM Tris pH 8.0, 1 mM DTT, 0.1 mg/ml BSA, 6% glycerol; 0.2 nM 32P substrate; 1 h on ice; 10% native PAGE in tris-borate; recombinant protein; residues 1-316; protein details: His; label: 5'-32P on RNA44

Chains of the proteins cited; added tags and fusions are not shown. A line that says so, or that is headed by a name, gives the form on record, which may keep a tag or linker.
UniProt P39748, whole entry: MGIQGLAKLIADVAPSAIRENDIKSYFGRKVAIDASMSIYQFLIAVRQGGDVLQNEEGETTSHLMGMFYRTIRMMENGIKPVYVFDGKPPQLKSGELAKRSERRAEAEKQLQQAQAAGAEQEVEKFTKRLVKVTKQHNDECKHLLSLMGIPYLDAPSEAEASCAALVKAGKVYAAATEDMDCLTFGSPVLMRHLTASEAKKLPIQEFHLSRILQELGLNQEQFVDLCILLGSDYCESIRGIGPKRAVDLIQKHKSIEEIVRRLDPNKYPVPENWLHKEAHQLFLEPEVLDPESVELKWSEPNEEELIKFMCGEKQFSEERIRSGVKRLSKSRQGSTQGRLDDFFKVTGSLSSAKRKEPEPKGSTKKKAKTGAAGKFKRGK
UniProt P39748, whole entry D181A: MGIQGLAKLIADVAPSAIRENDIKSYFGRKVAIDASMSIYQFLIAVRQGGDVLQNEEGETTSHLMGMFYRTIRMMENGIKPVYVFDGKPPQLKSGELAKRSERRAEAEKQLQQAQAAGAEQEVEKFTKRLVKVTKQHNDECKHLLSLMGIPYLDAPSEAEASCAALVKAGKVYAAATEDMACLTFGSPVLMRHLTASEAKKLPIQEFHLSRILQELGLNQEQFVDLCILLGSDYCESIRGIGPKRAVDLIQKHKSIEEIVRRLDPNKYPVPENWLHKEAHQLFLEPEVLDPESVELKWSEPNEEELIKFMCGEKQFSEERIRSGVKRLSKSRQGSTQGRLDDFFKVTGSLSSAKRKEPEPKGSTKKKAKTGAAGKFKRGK
FENMIT (human), one chain, as listed by the source: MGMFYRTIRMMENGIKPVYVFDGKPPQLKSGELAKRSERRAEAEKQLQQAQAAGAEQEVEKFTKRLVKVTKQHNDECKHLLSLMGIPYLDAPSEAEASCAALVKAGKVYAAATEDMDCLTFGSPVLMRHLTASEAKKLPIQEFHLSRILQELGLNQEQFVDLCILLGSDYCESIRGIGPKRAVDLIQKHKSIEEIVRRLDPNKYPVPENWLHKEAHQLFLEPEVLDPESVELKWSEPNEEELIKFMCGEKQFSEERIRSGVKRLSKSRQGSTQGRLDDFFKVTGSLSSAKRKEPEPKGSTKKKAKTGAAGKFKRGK

GCGATTATCCGTATCGGACGTAGGAAGCCTGCCATTTGATGGTC / GACCATCAAATGGCAGGCTG / UCAACGUGGGCAAAGAAUGUCCUACGUCCGAUACGGAUAAUCGC [T2:U2:RNA44* 5' RNA flap]
binding result [1]: binds more weakly
binding result (FEN1 D181A (human)): binds more weakly

GCGATTATCCGTATCGGACGTAGGAAGCCTGCCATTTGATGGTC / GACCATCAAATGGCAGGCTGAACGAACAAAGCGAAAGCG / UCAACGUGGGCAAAGAAUGUCCUACGUCCGAUACGGAUAAUCGC [U3:T2:RNA44* 5' RNA flap with 20 nt 3' flap]
binding signal (FENMIT (human) [2]): 3

AGCCTGCCATTTGATGGTCGTAGGACATTCTTTGCCCACGTTGA / AGACCATCAAATGGCAGGCT / UCAACGUGGGCAAAGAAUGUCCUACGUCCGAUACGGAUAAUCGC [T5:U5:RNA44* 3' RNA flap]
binding result (FENMIT (human) [3]): binds more weakly

Reference: article PMC3652857
